Experimental data from patent publication US7888341B2, “Combination of glivec (STI571) with a cyclin-dependent kinase inhibitor, especially flavopiridol, in the treatment of cancer” (The United States of America as represented by the …, priority 2002, dated 2011).
Counter-ions that a name gives are not always drawn.

Key:
[1] = tested on: K562R cells; assay: cells; details: Homo sapiens, K-562R
[2] = tested on: parental K562S cells; assay: cells; details: Homo sapiens

Cc1ccc(NC(=O)c2ccc(CN3CCN(C)CC3)cc2)cc1Nc1nccc(-c2cccnc2)n1 [SALT I, 4-[(4-methyl-1-piperazin-1-ylmethyl)-N-[4-methyl-3-[[4-(3-pyridinyl)-2-pyrimidinyl]amino]phenyl]benzamide methanesulfonate]
IC50 [1]: ~3 µM
IC50 [2]: 0.4 µM
